Test results reported in patent publication US20210052473A1, “COMPOSITION FOR REMOVING ALDEHYDE-BASED ODORS AND REACTIVE OXYGEN SPECIES” (Osteon Co. Ltd., priority 2019, published 2021).
Some entries share one result that the patent states for a list of compounds. At least one structure is not confirmed: it was looked up by name or label, or the drawing left a doubt.

Test: Deodorization performance: anisidine value (p-AV) by ultraviolet spectrometry after reaction with 0.2% 2-nonenal isooctane standard solution
Conditions: judged from p-AV against 0.2% 2-nonenal standard solution
Experimental: At this time, 0.2% 2-nonenal isooctane solution (v/v) was used as a standard solution to determine the deodorizing performance. 2-Nonenal is a typical aldehyde compound generated by the oxidation of unsaturated fatty acids in human skin. […] The deodorizing performance of the deodorizing substances was determined by measuring the anisidine values (p-AV).

Compound	Deodorizing effect / nonenal removal ability (in words)
O=S([O-])O.[Na+] [Comparative Example 1, Sodium bisulfite]	little deodorizing performance
O=S([O-])O.[K+] [Comparative Example 2, Potassium bisulfite]	little deodorizing performance
O=S([O-])O.[Li+] [Comparative Example 3, Lithium bisulfite]	little deodorizing performance
O=S([O-])S(=O)(=O)[O-].[K+].[K+] [Comparative Example 5, Potassium metabisulfite]	little deodorizing performance
O=S([O-])S(=O)(=O)[O-].[Li+].[Li+] [Comparative Example 7, Lithium metabisulfite]	little deodorizing performance
O=S([O-])S(=O)[O-].[K+].[K+] [Comparative Example 9, Potassium hydrosulfite]	little deodorizing performance
O=S([O-])S(=O)[O-].[Li+].[Li+] [Comparative Example 10, Lithium hydrosulfite]	little deodorizing performance
NCCCC[C@H](N)C(=O)O [Comparative Example 17, Lysine]	little deodorizing performance
N=C(N)NCCC[C@H](N)C(=O)O [Comparative Example 18, Arginine]	little deodorizing performance
